Experimental data: patent US20210003596A1, “CHEMILUMINESCENT ANDROSTENEDIONE CONJUGATES” (Siemens Healthcare Diagnostics Inc., priority 2017, published 2021)

System: solid phase comprising 3C3 antibody
Assay: Biotin interference in the non-specific binding of A4-7-AE conjugates, ADVIA Centaur assay on native serum
Parameters: species or system sheep
Conditions: for Biotin Interference: change between sample without biotin and with biotin 100 ng/mL; for Sample with Biotin, assay measured concentration of androstenedione / Sample Without Biotin, assay measured concentration of androstenedione: native serum approximately 2.2 ng/mL androstenedione; for Sample with Biotin, assay measured concentration of androstenedione: biotin 100 ng/mL; for Sample Without Biotin, assay measured concentration of androstenedione: no biotin

| SMILES | Biotin Interference | Sample with Biotin, assay measured concentration of androstenedione | Sample Without Biotin, assay measured concentration of androstenedione |
| --- | --- | --- | --- |
| Cc1cc(C(=O)NCCC[N+](C)(CCCNC(=O)CCC2CC3=CC(=O)CCC3(C)C3CCC4(C)C(=O)CCC4C23)CCCS(=O)(=O)[O-])cc(C)c1OC(=O)c1c2ccccc2[n+](CCCS(=O)(=O)[O-])c2ccccc12 (stereo not drawn) [A4-carbon-ZAE(α), A4(7α)-propionamide-Z-ZAE] | 0.6% | 2.25 ng/mL | 2.23 ng/mL |
| Cc1cc(C(=O)NCCC[N+](C)(CCCNC(=O)CCSC2CC3=CC(=O)CCC3(C)C3CCC4(C)C(=O)CCC4C23)CCCS(=O)(=O)[O-])cc(C)c1OC(=O)c1c2ccccc2[n+](CCCS(=O)(=O)[O-])c2ccccc12 (stereo not drawn) [compound 6, A4(7α)-CETE-NH-Z-ZAE] | 7.4% | 2.33 ng/mL | 2.17 ng/mL |
| Cc1cc(C(=O)NCCC[N+](C)(CCCNC(=O)CCC2CC3=CC(=O)CCC3(C)C3CCC4(C)C(=O)CCC4C23)CCCS(=O)(=O)[O-])cc(C)c1OC(=O)c1c2ccccc2[n+](CCCS(=O)(=O)[O-])c2ccccc12 (stereo not drawn) [A4-carbon-ZAE(β), A4(7β)-propionamide-Z-ZAE] | 0.4% | 2.23 ng/mL | 2.22 ng/mL |
